Laboratory results taken from article PMC5966444.
Results are given in words; binding and its absence hold for the method and conditions named. In cells and extracts the contact can be indirect. Binding calls can cover weak binding; strength is not graded here. Sequences can lack the tags named with a protein.

Amino acid sequences for entries named in this document (tags omitted). A change or cut given only in a name is not applied to a line headed by its entry.
UniProt P46867: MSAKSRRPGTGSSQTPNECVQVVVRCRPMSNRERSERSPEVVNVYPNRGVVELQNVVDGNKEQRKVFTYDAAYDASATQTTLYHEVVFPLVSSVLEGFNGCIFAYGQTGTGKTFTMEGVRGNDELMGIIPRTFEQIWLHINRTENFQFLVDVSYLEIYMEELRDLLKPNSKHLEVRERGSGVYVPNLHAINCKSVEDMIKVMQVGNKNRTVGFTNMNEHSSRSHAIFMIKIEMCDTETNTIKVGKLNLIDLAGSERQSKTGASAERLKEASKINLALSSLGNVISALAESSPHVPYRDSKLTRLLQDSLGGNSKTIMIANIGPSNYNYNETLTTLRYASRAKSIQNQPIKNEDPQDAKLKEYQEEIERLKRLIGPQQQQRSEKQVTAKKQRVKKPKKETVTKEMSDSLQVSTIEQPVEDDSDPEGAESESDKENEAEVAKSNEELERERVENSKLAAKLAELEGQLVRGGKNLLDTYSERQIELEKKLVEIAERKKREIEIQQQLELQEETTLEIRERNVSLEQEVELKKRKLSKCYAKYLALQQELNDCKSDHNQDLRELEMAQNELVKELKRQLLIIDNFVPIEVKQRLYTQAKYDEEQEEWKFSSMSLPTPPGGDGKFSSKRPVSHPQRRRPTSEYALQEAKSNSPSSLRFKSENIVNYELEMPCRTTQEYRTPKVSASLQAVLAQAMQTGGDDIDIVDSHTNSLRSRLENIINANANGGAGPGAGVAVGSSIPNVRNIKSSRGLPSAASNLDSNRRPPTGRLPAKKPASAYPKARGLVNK

Molecular target: KLP68D-YFP, Kinesin-2 motor subunit KLP68D (2β) tagged with YFP (Drosophila) (UniProt P46867)
Assay: FRET or BRET; sensitized FRET (sFRET) in the proximal axon segment of lch5 neurons of dissected third instar Drosophila larvae, 76–79 h AEL; donor TQ (405 nm excitation, 480–495 nm), FRET channel 535–565 nm; ratio of FRET channel to TQ channel; also time-lapse at 5 Hz for up to 40 s

B1: recombinant ChAT (Choline Acetyltransferase) tagged with the mTurquoise fluorescent protein (enzyme, UniProt P07668 1-721)
chain: MASNEASTSAAGSGPESAALFSKLRSFSIGSGPNSPQRVVSNLRGFLTHRLSNITPSDTGWKDSILSIPKKWLSTAESVDEFGFPDTLPKVPVPALDETMADYIRALEPITTPAQLERTKELIRQFSAPQGIGARLHQYLLDKREAEDNWAYYYWLNEMYMDIRIPLPINSNPGMVFPPRRFKTVHDVAHFAARLLDGILSHREMLDSGELPLERAASREKNQPLCMAQYYRLLGSCRRPGVKQDSQFLPSRERLNDEDRHVVVICRNQMYCVVLQASDRGKLSESEIASQILYVLSDAPCLPAKPVPVGLLTAEPRSTWARDREMLQEDERNQRNLELIETAQVVLCLDEPLAGNFNARGFTGATPTVHRAGDRDETNMAHEMIHGGGSEYNSGNRWFDKTMQLIICTDGTWGLCYEHSCSEGIAVVQLLEKIYKKIEEHPDEDNGLPQHHLPPPERLEWHVGPQLQLRFAQASKSVDKCIDDLDFYVYRYQSYGKTFIKSCQVSPDVYIQLALQLAHYKLYGRLVATYESASTRRFLHGRVDCIRAASTEALEWAKAMCQGEGANVPLESDREDEEESRKVKFSIYSKDHLRELFRCAVARQTEVMVKNILGNGIDIPLLGLREASIEVTGEMHELFKDESYIISQCFLLSTSQVACSTDSFMGYGPVTPRGYGCSYNPHPEQIVFCVSAFYSCEDTSASRYAKSLQDSLDIMRDLLQN
- binding: binds
